Laboratory results as given in article doi:10.1101/2021.07.09.451853.
These are yes or no findings as the source states them, for the method shown. Binding seen in cells or lysates may run through a third protein. Some results given as binding are weak or reduced against the parent protein; the word gives no strength. Sequences can lack the tags named with a protein.

Molecular target: T1, 14-3-3 OMEGA:YFP (35S:OMEGA:YFP) (A. thaliana) (UniProt Q01525)
T1 sequence: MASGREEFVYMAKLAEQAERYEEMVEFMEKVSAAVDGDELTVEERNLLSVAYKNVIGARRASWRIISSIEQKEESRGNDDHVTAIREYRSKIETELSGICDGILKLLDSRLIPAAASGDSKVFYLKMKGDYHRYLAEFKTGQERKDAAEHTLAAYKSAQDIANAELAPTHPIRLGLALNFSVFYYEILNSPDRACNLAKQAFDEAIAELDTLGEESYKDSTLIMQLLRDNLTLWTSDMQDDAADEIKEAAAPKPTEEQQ
Experiment: co-IP

B1: 14-3-3 KAPPA:HA (35S:KAPPA:HA) (protein, UniProt P48348 1-248)
chain: MATTLSRDQYVYMAKLAEQAERYEEMVQFMEQLVSGATPAGELTVEERNLLSVAYKNVIGSLRAAWRIVSSIEQKEESRKNEEHVSLVKDYRSKVETELSSICSGILRLLDSHLIPSATASESKVFYLKMKGDYHRYLAEFKSGDERKTAAEDTMIAYKAAQDVAVADLAPTHPIRLGLALNFSVFYYEILNSSEKACSMAKQAFEEAIAELDTLGEESYKDSTLIMQLLRDNLTLWTSDMQEQMDEA
Q: With B1 as the binder, how does the binding read?
A: Its binding is “binds”.
